In publication PMC4791683:
No constants are given. Whether binding was seen depends on the method and setting. Binding seen in cells or lysates may run through a third protein. Some entries that bind do so weakly or less than the wild type. Blank lines part the entries; values can stand above or below the molecule they belong to.

Sequences of proteins named here, by UniProt entry; tags and fusion partners are left off. Residues count along the entry.
UniProt P29117, residues 30-206: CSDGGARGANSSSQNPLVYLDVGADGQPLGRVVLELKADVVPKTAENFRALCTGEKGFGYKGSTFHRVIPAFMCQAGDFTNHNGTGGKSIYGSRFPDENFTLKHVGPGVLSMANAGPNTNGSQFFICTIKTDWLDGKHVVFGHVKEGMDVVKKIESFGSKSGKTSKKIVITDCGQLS

What was measured:
[1] = molecular target: T1, peroxiredoxin 3 (rat (endogenous in rat heart mitochondria)) (UniProt Q9Z0V6); experiment: co-IP; pre-reduced (TrxR1, NADPH) rat heart mitochondrial matrix (200 ug protein); immunoprecipitated with anti-Trx2 or anti-Prx3 monoclonal antibody and protein A/G PLUS-Agarose at 4 °C, 50 mM Tris/HCl pH 7.4, 50 mM NaCl; blot probed with monoclonal anti-CypD
T1 sequence: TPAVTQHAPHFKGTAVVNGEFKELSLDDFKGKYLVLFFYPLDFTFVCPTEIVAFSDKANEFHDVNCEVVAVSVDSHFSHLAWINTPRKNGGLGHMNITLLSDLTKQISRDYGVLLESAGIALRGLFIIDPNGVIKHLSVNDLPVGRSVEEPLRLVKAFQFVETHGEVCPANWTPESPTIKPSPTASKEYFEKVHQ

[2] = molecular target: T2, thioredoxin 2 (rat (endogenous in rat heart mitochondria)) (UniProt P97615); experiment: as above
T2 sequence: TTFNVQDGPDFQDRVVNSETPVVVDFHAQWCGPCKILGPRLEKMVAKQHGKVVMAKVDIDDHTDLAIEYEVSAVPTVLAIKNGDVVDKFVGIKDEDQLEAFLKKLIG

[3] = molecular target: cyclophilin D (rat (endogenous in rat heart mitochondria)) (UniProt P29117); experiment: co-IP; reverse: pre-reduced rat heart mitochondrial matrix immunoprecipitated with an anti-CypD antibody, same procedure; Trx2 and Prx3 detected in the pull down

binding [1]: binds | binding [2]: binds
Molecule: cyclophilin D (from UniProt P29117 30-206)

binding [3]: binds
B1: thioredoxin 2 (protein, UniProt P97615 60-166)
chain: T2 sequence

binding [3]: binds
B2: peroxiredoxin 3 (protein, UniProt Q9Z0V6 63-257)
chain: T1 sequence
